Source: patent US11065203B2, “Liposomal compositions and uses of same” (Technion Research & Development Foundation Limited, priority 2009, dated 2021)

B1: P51991 (protein, UniProt P51991 1-378, looked up)
chain: MEVKPPPGRPQPDSGRRRRRRGEEGHDPKEPEQLRKLFIGGLSFETTDDSLREHFEKWGTLTDCVVMRDPQTKRSRGFGFVTYSCVEEVDAAMCARPHKVDGRVVEPKRAVSREDSVKPGAHLTVKKIFVGGIKEDTEEYNLRDYFEKYGKIETIEVMEDRQSGKKRGFAFVTFDDHDTVDKIVVQKYHTINGHNCEVKKALSKQEMQSAGSQRGRGGGSGNFMGRGGNFGGGGGNFGRGGNFGGRGGYGGGGGGSRGSYGGGDGGYNGFGGDGGNYGGGPGYSSRGGYGGGGPGYGNQGGGYGGGGGYDGYNEGGNFGGGNYGGGGNYNDFGNYSGQQQSNYGPMKGGSFGGRSSGSPYGGGYGSGGGSGGYGSRRF
modifications: full-length
B2: P00558 (protein, UniProt P00558 1-417, looked up)
chain: MSLSNKLTLDKLDVKGKRVVMRVDFNVPMKNNQITNNQRIKAAVPSIKFCLDNGAKSVVLMSHLGRPDGVPMPDKYSLEPVAVELKSLLGKDVLFLKDCVGPEVEKACANPAAGSVILLENLRFHVEEEGKGKDASGNKVKAEPAKIEAFRASLSKLGDVYVNDAFGTAHRAHSSMVGVNLPQKAGGFLMKKELNYFAKALESPERPFLAILGGAKVADKIQLINNMLDKVNEMIIGGGMAFTFLKVLNNMEIGTSLFDEEGAKIVKDLMSKAEKNGVKITLPVDFVTADKFDENAKTGQATVASGIPAGWMGLDCGPESSKKYAEAVTRAKQIVWNGPVGVFEWEAFARGTKALMDEVVKATSRGCITIIGGGDTATCCAKWNTEDKVSHVSTGGGASLELLEGKVLPGVDALSNI
modifications: full-length
B3: Q9UKM9 (protein, UniProt Q9UKM9 1-306, looked up)
chain: MSLKLQASNVTNKNDPKSINSRVFIGNLNTALVKKSDVETIFSKYGRVAGCSVHKGYAFVQYSNERHARAAVLGENGRVLAGQTLDINMAGEPKPDRPKGLKRAASAIYSGYIFDYDYYRDDFYDRLFDYRGRLSPVPVPRAVPVKRPRVTVPLVRRVKTNVPVKLFARSTAVTTSSAKIKLKSSELQAIKTELTQIKSNIDALLSRLEQIAAEQKANPDGKKKGDGGGAGGGGGGGGSGGGGSGGGGGGGSSRPPAPQENTTSEAGLPQGEARTRDDGDEEGLLTHSEEELEHSQDTDADDGALQ
modifications: full-length
B4: P04899 (protein, UniProt P04899 1-355, looked up)
chain: MGCTVSAEDKAAAERSKMIDKNLREDGEKAAREVKLLLLGAGESGKSTIVKQMKIIHEDGYSEEECRQYRAVVYSNTIQSIMAIVKAMGNLQIDFADPSRADDARQLFALSCTAEEQGVLPDDLSGVIRRLWADHGVQACFGRSREYQLNDSAAYYLNDLERIAQSDYIPTQQDVLRTRVKTTGIVETHFTFKDLHFKMFDVGGQRSERKKWIHCFEGVTAIIFCVALSAYDLVLAEDEEMNRMHESMKLFDSICNNKWFTDTSIILFLNKKDLFEEKITHSPLTICFPEYTGANKYDEAASYIQSKFEDLNKRKDTKEIYTHFTCATDTKNVQFVFDAVTDVIIKNNLKDCGLF
modifications: full-length
B5: P43304 (protein, UniProt P43304 1-727, looked up)
chain: MAFQKAVKGTILVGGGALATVLGLSQFAHYRRKQMNLAYVKAADCISEPVNREPPSREAQLLTLQNTSEFDILVIGGGATGSGCALDAVTRGLKTALVERDDFSSGTSSRSTKLIHGGVRYLQKAIMKLDIEQYRMVKEALHERANLLEIAPHLSAPLPIMLPVYKWWQLPYYWVGIKLYDLVAGSNCLKSSYVLSKSRALEHFPMLQKDKLVGAIVYYDGQHNDARMNLAIALTAARYGAATANYMEVVSLLKKTDPQTGKVRVSGARCKDVLTGQEFDVRAKCVINATGPFTDSVRKMDDKDAAAICQPSAGVHIVMPGYYSPESMGLLDPATSDGRVIFFLPWQKMTIAGTTDTPTDVTHHPIPSEEDINFILNEVRNYLSCDVEVRRGDVLAAWSGIRPLVTDPKSADTQSISRNHVVDISESGLITIAGGKWTTYRSMAEDTINAAVKTHNLKAGPSRTVGLFLQGGKDWSPTLYIRLVQDYGLESEVAQHLAATYGDKAFEVAKMASVTGKRWPIVGVRLVSEFPYIEAEVKYGIKEYACTAVDMISRRTRLAFLNVQAAEEALPRIVELMGRELNWDDYKKQEQLETARKFLYYEMGYKSRSEQLTDRSEISLLPSDIDRYKKRFHKFDADQKGFITIVDVQRVLESINVQMDENTLHEILNEVDLNKNGQVELNEFLQLMSAIQKGRVSGSRLAILMKTAEENLDRRVPIPVDRSCGGL
modifications: full-length
B6: Q13011 (protein, UniProt Q13011 1-328, looked up)
chain: MAAGIVASRRLRDLLTRRLTGSNYPGLSISLRLTGSSAQEEASGVALGEAPDHSYESLRVTSAQKHVLHVQLNRPNKRNAMNKVFWREMVECFNKISRDADCRAVVISGAGKMFTAGIDLMDMASDILQPKGDDVARISWYLRDIITRYQETFNVIERCPKPVIAAVHGGCIGGGVDLVTACDIRYCAQDAFFQVKEVDVGLAADVGTLQRLPKVIGNQSLVNELAFTARKMMADEALGSGLVSRVFPDKEVMLDAALALAAEISSKSPVAVQSTKVNLLYSRDHSVAESLNYVASWNMSMLQTQDLVKSVQATTENKELKTVTFSKL
modifications: full-length
B7: O75439 (protein, UniProt O75439 1-489, looked up)
chain: MAAAAARVVLSSAARRRLWGFSESLLIRGAAGRSLYFGENRLRSTQAATQVVLNVPETRVTCLESGLRVASEDSGLSTCTVGLWIDAGSRYENEKNNGTAHFLEHMAFKGTKKRSQLDLELEIENMGAHLNAYTSREQTVYYAKAFSKDLPRAVEILADIIQNSTLGEAEIERERGVILREMQEVETNLQEVVFDYLHATAYQNTALGRTILGPTENIKSISRKDLVDYITTHYKGPRIVLAAAGGVSHDELLDLAKFHFGDSLCTHKGEIPALPPCKFTGSEIRVRDDKMPLAHLAIAVEAVGWAHPDTICLMVANTLIGNWDRSFGGGMNLSSKLAQLTCHGNLCHSFQSFNTSYTDTGLWGLYMVCESSTVADMLHVVQKEWMRLCTSVTESEVARARNLLKTNMLLQLDGSTPICEDIGRQMLCYNRRIPIPELEARIDAVNAETIREVCTKYIYNRSPAIAAVGPIKQLPDFKQIRSNMCWLRD
modifications: full-length
B8: Q15019 (protein, UniProt Q15019 1-361, looked up)
chain: MSKQQPTQFINPETPGYVGFANLPNQVHRKSVKKGFEFTLMVVGESGLGKSTLINSLFLTDLYPERVIPGAAEKIERTVQIEASTVEIEERGVKLRLTVVDTPGYGDAINCRDCFKTIISYIDEQFERYLHDESGLNRRHIIDNRVHCCFYFISPFGHGLKPLDVAFMKAIHNKVNIVPVIAKADTLTLKERERLKKRILDEIEEHNIKIYHLPDAESDEDEDFKEQTRLLKASIPFSVVGSNQLIEAKGKKVRGRLYPWGVVEVENPEHNDFLKLRTMLITHMQDLQEVTQDLHYENFRSERLKRGGRKVENEDMNKDQILLEKEAELRRMQEMIARMQAQMQMQMQGGDGDGGALGHHV
modifications: full-length

Test: Proteomics analysis (trypsin digest, LC-MS/MS) of hMSC ghosts and derived CDLs, conditioned or unconditioned by PC3 medium
Set-up: species or system human
Conditions: LC-MS/MS peak area per protein; for Ratio of expression Cond. CDLs/Cond. Ghosts: CDLs derived from conditioned hMSCs versus conditioned ghosts; for Ratio of expression Cond Ghosts/Ghosts: hMSC ghosts conditioned by PC3 medium versus unconditioned ghosts

Molecule	Ratio of expression Cond. CDLs/Cond. Ghosts	Ratio of expression Cond Ghosts/Ghosts
B1	6%	100%
B2	5%	100%
B3	6%	100%
B4	6%	100%
B5	5%	100%
B6	5%	100%
B7	5%	100%
B8	5%	100%
